Test results: US20240425588A1
Results are given in words; binding and its absence hold for the method and conditions named. Some results given as binding are weak or reduced against the parent protein; the word gives no strength.

Target: rhesus TIGIT expressed on the cell surface of Jurkat cells (rhesus)
Test: flow cytometry on Jurkat-rhesTIGIT cells

B1: 45.32A8.G6 (antibody, V domains shown)
VH: QVQLKESGPGLVAPSHSLSITCTVSGFSLTNYNINWIRQPPGKGLEWLGIIWTGGGTNYNSAFMSTLSINKDNSKSQVFLKMNRMQTDDTTIYYCVRETYFNNYGFYFDYWGQSTTLTVSS
VL: EIVLTQSPTTMAASPGEKITITCSASSSISSNYLHWYQQKPGFSPKLLIYRTSNLASGVPARFSGSGSGTSYSLTIGTMEAEDVATYYCQQGSSIPRTFGGGTKLEIK
binding: binds

B2: 45.32B10.A4 (antibody, V domains shown)
VH: EVQLVESGGVLVKPGGSLKLSCAASGFTFSNYVMSWVRQTPEKRLEWVATITSGGTYTYYPDSVKGRFTISRDNAKNILYLQMSSLRSEDTALYYCTRWLLSLYAMDYWGQGTSVTVSS
VL: DIQMTQTTSSLSASLGDRVTITCRASQDISNFLNWYQQKPDGTVKLLIYYTSRLHSGVPSRFSGSGSGTDYSLTISNLEQEDIATYFCQQGKTYPYTFGGGTKVEIK
binding: binds

B3: 45.49H11.H11 (antibody, V domains shown)
VH: EVQLQQSGPELVKPGASVKMSCKTSKYTFTNYVLHWVKQKPGQGLEWIGYINPYNDGTKYNEKFKGKATLTSDKSSSTAYMELSSLTSEDSAVYYCARSYQSNYGFGYWGQGTLVTVSA
VL: DIVMTQSHKFMSTSVGDRVSITCKASQHVSTAVVWYRQIPGQSPKILINSASYRYTGVPDRFTGSGSGTDFTFTISSVQAEDLAVYYCQQHYSIPWTFGGGTKLEIK
binding: binds

B4: 45.56F7.A1 (antibody, V domains shown)
VH: EVQLVESGGALVKPGGSLKLSCAASGFTFSNYAMSWVRQTPEKRLEWVATISSGGSYTYYPDSVKGRFTISRDNAKNTLYLQMSSLRSEDTALYYCARWLLSLYAMDYWGQGTSVTVSS
VL: DFQMTQTTSSLSASLGDRVTISCRSSQDISNYLNWYQQKPDGTVKLLIYRTSRLHSGVPSRFSGSGSGTDYSLTISNLEREDIATYFCQQGKTPPYTFGGGTKLEIK
binding: binds

B5: 45.31G8.E9 (antibody, V domains shown)
VH: QIQLQQSGAELVRPGTSVKMSCKAVGYTFTNYWINWVKQRPGHGFEWIGDIYPGGYYINYNEKFKGKATLTADTSSSTAYMQLSSLTSEDSAIYYCARGYGSYAMDYWGQGTSVTVSS
VL: DIVMTQSQKFMSTSVGDRVSITCKASQNVRTDVVWYQQKPGQSPKALIFLASNRHTGVPDRFTGSGSGTDFTLTISNVQSEDLADYFCLQHWNYPYTFGGGTKLEIK
binding: binds

B6: 45.62B12.G5 (antibody, V domains shown)
VH: DVQLQESGPGLVKPSQSLSLTCTVTGYSITSAYDWHWIRHFPGNILEWMGYIRNSGSTNYNPLLKSRISITHDTSQNHFSLKLNSVTTEDTATYYCARGLFWYFDVWGAGTTVTVSS
VL: DIQMTQSPASLSASVGETVTITCRASENIYNYLTWYQQKQGKSPQLLVYNAKTLAEGVPSRFSGSGSGTQFSLKINSLQPEDFGSYYCQHHYGNPLTFGAGTKLELK
binding: binds

B7: 45.75D4.D3.D9 (antibody, V domains shown)
VH: EVQLQQSGPELVKPGASMKMSCKASGYKFTSYVMHWVKQKPGQGLEWIGYIDPYNDGSKYNEKFKGKATLTSDKSSSIAYMELSSLTSEDSAVFYCARGGSRGWYFDVWGAGTTVTVSS
VL: DIQMTQSPASLSASVGETVTFTCRTNENIYSYLTWYQQKQGKSPQVLVYNAKTLAEGVPSRFSGSGSGTQFSLKINSLQPEDFGSYFCQHHFGNPLTFGAGTKLELK
binding: binds

B8: 45.86C5.C3 (antibody, V domains shown)
VH: DVQLQESGPGLVKPSQSLSLTCTVTGYSITSGYDWHWIRHFPGNILEWMGYISDSGNTIYSPSLKSRISITHDTSKNHFFLKLNSVTSEDTATYYCARGSFWYFDVWGAGTTVTVSS
VL: DIQMTQSPASLSASVGETVTITCRVSENIYSYLAWYQQKQGKSPQLLVYNTKTLAEGVPSRFSGSGSGTQFSLKINSLQPEDFGSYYCQHHYGNPLTFGAGTKLELK
binding: binds

B9: 45.87B8.H2.H5 (antibody, V domains shown)
VH: DVQLQESGPGLVKPSQSLSLTCTVTGYSITSAYDWHWIRLFPGHILEWMGYISYSGNTIYNPSLKSRISITHDTSKNHFFLKLNSVTTEDTATYYCARGSFWYFDVWGAGTTVTVSS
VL: DIQMTQSPASLSASVGETVTITCRVSEHIYNYLAWYQQKQGKSPQLLVYNAKTLAEGVPSRFSGSGSGTQFSLKINSLQPEDFGTYYCQHNYGNPLTFGAGTKVELK
binding: binds
